Test results as given in patent publication US20040151721A1.
Results are given in words; binding and its absence hold for the method and conditions named. Some results given as binding are weak or reduced against the parent protein; the word gives no strength.

Chains of the proteins cited; added tags and fusions are not shown.
UniProt P41597: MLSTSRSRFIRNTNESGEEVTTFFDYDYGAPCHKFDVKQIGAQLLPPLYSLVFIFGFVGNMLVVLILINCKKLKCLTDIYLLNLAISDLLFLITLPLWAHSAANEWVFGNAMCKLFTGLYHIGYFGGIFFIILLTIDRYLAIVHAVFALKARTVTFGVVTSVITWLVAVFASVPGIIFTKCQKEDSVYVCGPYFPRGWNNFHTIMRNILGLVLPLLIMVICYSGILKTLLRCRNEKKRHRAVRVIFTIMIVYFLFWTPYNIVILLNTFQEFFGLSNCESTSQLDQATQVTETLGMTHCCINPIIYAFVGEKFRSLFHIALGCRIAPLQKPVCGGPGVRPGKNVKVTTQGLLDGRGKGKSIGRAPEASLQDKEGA

Target: human CCR2, endogenous on THP-1 cells / THP-1 cell membranes, fresh PBMC and whole blood cells (human) (UniProt P41597)
Assay: inhibition of 0.1 nM [125I]-MCP-1 binding to whole THP-1 cells (FIG. 25)

B1: humanized version of mAb 1D9 comprising the 1D9RHAVH heavy chain and the 1D9RKAVK light chain (antibody, V domains shown)
VH: EVQLVESGGGLVKPGGSLRLSCAASGFTFSAYAMNWVRQAPGKGLEWVGRIRTKNNNYATYYADSVKDRFTISRDDSKNTLYLQMNSLKTEDTAVYYCTTFYGNGVWGQGTLVTVSS
VL: DVVMTQSPLSLPVTLGQPASISCKSSQSLLDSDGKTFLNWFQQRPGQSPRRLIYLVSKLDSGVPDRFSGSGSGTDFTLKISRVEAEDVGVYYCWQGTHFPYTFGQGTRLEIK
  binding: binds
